Reference: patent publication US20160175328A1, “COMPOSITIONS AND TREATMENTS OF HEART FAILURE IN NON-HUMAN MAMMAL ANIMALS” (CEVA SANTE ANIMALE SA, priority 2008, published 2016)

Tested on: dogs in hyperaldosteronemia
Assay: Model for assessing the anti-aldosterone activity (urinary Na/K after aldosterone injection)
Assay type: in vivo, dog
Details: N 15
Procedure: They have been tattooed in advance for easy identification and situated in stainless steel individual boxes.
A preliminary study was performed in order to determining the ED80 value for the natriuretic effect of aldosterone on its own.
The dogs described above were allocated to different treatment groups (A, B, C, D, and E) and a rest period was left between treatments.
A negative control group A only received the pharmaceutical excipient. The positive control group B only received 3 μg/kg of aldosterone. […] 200 g food was then given immediately after treatment.
The samples were frozen and kept in the dark at approx. −80° C. […] Also, the urine was collected during the time periods ranging from T0-T6h; T6h-T12h and T12h-T24h.
After calibration and count, the quantity of aldosterone present in the sample was thus determined once counted.
The sodium and potassium contents in urines were determined using […]. […] According to this method 500 μL plasma were mixed with ethyl acetate (80/20, V/V) as solvents. […] The compounds and the internal standard (i.e. methyl-testosterone) were separated on a Kromasil C18 column.
A statistical analysis was performed with the STATGRAPHICS Plus version 4.1 software (Manugestics, Inc., Rockville, Md., U.S.A.). The results were presented such as averages±SD; p<0.05 is considered as significant.

Row | Structure (SMILES) | Aldosterone levels at 6 h (group B, dosage 0, aldosterone 3 μg/kg) [pg/L] | Aldosterone levels at 6 h (group C, spironolactone dosage 0.8, aldosterone 3 μg/kg) [pg/L] | Aldosterone levels at 6 h (group D, spironolactone dosage 2, aldosterone 3 μg/kg) [pg/L] | Aldosterone levels at 6 h (group E, spironolactone dosage 8, aldosterone 3 μg/kg) [pg/L]
1 | C[C@]12CCC(=O)C=C1CC[C@@H]1[C@@H]2[C@@H](O)C[C@]2(C=O)[C@@H](C(=O)CO)CC[C@@H]12 [Aldosterone] | 239.1 ± 156.8 |  |  | 
2 | CC(=O)S[C@@H]1CC2=CC(=O)CC[C@]2(C)[C@H]2CC[C@@]3(C)[C@@H](CC[C@@]34CCC(=O)O4)[C@H]12 [Spironolactone, 7α-acetylthio-3-oxo-17α-pregn-4-ene-21,17-carbolactone] |  | 298.1 ± 168.0 | 285.1 ± 138.9 | 361.3 ± 169.3
